Reference: US4007267A, “Antibiotic B-98891” (priority 1974, dated 1977)
For at least one compound, name, drawing or mass did not settle the structure.

System: Pyricularia oryzae IFO-5279
Type: cell-based
Settings: paper disc 7 mm, 5000 μg/ml; medium A, 28 °C, time 40

With NC(N)=NCC(O)CC(O)(C(=O)O)[C@H]1O[C@@H](n2cc(CO)c(N)nc2=O)C=C[C@@H]1NC(=O)[C@@H](N)CO (stereo partly shown) [B-98891] the “Diameter of inhibition zone” value was “-”.
